The assay deals with RICTOR (human (endogenous in U87MG, DBTRG-05MG, H4, SW1088)) (UniProt Q6R327). Briefly: co-IP; anti-RICTOR IP from U87MG lysates, western blot; control against siRICTOR; normal, serum activation, AZD8055 and JR-AB2-011 treatment.

Amino acid sequences for entries named in this document (tags omitted).
UniProt Q6R327: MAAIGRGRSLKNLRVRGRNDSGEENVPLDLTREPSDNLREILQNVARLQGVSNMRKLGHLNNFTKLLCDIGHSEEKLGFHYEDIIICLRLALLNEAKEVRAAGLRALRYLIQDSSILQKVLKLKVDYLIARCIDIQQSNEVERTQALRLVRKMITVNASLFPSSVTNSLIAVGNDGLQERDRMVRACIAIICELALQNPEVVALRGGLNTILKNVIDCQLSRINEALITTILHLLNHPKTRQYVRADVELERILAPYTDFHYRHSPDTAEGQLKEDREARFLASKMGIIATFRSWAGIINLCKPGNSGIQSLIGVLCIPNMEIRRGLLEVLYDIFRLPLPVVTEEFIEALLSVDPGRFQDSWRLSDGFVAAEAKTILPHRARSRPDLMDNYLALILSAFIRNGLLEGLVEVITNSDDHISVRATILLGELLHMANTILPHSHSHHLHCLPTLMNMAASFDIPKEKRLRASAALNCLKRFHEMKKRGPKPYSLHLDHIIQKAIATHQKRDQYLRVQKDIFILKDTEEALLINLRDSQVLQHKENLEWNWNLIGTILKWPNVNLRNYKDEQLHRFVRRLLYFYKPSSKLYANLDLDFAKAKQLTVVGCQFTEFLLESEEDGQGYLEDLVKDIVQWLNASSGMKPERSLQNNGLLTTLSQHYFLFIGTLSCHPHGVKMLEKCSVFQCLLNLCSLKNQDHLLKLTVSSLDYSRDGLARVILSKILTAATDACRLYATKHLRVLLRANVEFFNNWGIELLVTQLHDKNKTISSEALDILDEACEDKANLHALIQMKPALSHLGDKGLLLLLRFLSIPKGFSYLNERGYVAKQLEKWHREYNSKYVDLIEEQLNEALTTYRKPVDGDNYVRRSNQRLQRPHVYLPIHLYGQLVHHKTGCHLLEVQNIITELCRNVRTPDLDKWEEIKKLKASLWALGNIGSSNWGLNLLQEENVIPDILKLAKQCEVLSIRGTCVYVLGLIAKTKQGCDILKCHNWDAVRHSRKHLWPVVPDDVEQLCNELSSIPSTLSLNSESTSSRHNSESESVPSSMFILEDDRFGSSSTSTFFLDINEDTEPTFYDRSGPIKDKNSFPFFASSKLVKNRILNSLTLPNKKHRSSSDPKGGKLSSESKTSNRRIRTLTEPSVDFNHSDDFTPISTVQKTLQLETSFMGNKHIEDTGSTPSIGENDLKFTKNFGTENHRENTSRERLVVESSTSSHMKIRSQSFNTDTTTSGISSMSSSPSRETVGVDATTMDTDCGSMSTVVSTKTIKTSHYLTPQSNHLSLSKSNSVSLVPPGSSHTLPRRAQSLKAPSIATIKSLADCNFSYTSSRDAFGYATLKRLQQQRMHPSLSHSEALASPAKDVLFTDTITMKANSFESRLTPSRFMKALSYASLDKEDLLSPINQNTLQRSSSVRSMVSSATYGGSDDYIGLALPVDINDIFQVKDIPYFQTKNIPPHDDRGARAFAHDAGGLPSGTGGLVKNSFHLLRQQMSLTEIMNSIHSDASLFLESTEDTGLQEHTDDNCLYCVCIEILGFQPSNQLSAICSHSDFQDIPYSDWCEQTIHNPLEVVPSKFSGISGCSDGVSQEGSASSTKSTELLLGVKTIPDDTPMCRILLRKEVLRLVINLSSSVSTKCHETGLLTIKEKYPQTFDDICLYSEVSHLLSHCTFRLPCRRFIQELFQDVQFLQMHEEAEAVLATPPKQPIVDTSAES
UniProt P35579: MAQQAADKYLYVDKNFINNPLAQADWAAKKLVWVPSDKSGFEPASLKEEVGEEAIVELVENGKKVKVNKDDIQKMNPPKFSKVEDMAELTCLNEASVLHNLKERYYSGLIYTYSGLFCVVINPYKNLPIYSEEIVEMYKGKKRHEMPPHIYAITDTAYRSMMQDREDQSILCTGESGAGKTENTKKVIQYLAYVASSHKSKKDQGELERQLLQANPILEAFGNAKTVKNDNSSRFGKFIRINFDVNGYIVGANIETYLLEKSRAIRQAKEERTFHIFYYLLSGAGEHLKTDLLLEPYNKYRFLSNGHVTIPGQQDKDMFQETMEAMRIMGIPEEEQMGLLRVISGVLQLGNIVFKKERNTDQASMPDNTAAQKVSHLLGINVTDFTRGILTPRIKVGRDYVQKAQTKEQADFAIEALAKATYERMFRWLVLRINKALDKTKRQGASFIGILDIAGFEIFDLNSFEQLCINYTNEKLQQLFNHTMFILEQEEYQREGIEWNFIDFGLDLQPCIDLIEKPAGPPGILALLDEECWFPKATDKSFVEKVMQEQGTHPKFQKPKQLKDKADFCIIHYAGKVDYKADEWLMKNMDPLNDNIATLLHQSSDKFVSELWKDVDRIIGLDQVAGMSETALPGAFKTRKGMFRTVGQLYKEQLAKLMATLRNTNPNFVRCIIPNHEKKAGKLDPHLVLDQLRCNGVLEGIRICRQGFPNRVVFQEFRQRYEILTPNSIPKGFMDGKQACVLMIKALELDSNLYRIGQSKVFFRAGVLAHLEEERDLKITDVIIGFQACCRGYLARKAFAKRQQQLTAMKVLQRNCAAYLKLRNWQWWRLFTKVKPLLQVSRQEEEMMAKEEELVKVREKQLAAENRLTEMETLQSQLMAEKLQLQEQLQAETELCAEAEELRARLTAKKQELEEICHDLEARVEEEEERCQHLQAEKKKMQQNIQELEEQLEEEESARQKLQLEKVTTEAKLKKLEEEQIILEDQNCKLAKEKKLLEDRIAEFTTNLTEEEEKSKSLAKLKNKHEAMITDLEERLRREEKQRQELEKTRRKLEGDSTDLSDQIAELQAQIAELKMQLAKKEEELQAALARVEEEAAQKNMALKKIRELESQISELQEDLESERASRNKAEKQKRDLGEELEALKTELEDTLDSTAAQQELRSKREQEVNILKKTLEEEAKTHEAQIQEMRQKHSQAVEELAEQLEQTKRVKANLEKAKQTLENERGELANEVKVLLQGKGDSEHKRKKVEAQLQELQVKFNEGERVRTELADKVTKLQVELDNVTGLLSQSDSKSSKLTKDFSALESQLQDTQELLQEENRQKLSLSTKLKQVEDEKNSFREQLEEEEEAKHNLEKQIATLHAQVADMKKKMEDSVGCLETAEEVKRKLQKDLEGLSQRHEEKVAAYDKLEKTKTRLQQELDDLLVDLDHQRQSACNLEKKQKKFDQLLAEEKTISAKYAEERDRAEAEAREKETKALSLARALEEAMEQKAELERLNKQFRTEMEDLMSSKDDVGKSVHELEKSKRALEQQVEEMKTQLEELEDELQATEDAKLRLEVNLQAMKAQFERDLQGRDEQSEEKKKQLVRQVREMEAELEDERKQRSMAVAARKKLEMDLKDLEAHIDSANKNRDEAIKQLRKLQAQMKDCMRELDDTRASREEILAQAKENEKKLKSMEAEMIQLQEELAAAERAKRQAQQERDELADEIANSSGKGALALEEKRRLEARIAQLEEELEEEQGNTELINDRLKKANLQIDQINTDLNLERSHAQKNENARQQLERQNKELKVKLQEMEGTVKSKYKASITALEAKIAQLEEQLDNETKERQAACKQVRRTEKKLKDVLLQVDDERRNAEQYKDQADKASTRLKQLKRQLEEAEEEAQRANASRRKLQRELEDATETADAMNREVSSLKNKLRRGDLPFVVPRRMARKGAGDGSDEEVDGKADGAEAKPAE
UniProt P50552: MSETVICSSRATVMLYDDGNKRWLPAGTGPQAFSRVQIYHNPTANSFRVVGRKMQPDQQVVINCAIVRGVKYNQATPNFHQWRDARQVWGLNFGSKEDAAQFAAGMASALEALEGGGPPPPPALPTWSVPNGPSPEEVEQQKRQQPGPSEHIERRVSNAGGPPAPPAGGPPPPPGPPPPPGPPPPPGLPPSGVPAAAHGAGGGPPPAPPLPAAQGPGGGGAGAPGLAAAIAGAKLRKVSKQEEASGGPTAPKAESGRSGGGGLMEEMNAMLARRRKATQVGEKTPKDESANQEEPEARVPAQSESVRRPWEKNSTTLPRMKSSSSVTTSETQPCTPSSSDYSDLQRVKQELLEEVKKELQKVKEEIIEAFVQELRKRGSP
UniProt P26038: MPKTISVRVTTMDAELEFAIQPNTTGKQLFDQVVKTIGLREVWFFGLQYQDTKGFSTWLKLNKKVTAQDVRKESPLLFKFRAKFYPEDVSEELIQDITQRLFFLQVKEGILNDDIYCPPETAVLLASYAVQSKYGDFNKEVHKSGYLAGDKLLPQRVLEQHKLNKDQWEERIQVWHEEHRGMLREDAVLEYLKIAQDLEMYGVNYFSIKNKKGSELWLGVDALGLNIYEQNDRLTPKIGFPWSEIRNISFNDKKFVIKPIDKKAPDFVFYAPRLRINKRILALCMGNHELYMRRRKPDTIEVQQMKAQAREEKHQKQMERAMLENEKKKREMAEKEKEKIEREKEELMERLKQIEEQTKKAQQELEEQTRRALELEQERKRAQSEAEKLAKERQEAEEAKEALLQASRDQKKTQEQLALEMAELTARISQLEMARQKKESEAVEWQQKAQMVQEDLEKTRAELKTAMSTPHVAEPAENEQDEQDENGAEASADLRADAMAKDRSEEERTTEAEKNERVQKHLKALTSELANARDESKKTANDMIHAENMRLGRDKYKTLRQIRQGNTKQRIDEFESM

For three substances, binding results are on record in publication PMC10148843.

Results are given in words; binding and its absence hold for the method and conditions named. Binding seen in cells or lysates may run through a third protein. Some binding calls cover weakened binding; strength is not graded here.

With “myosin-9 (MYH9) (from UniProt P35579 1-1960)”, the binding entry is given as “binds”. As for “vasodilator-stimulated phosphoprotein (VASP) (from UniProt P50552 1-380)”, the entry is “binds”; as for “moesin (MSN) (from UniProt P26038 1-577)”, “binds”.
